Source: the odorant receptor screen of Mainland et al. (2015)
Where “and” joins values, the source holds several entries; their conditions need not be identical. Equal values may be shown once. The list shows a part of the results. Single wells; the ratio to wells without odorant was worked out here, and repeats agree poorly.

System: OR2A2 F280L clone 1541
Assay: odorant receptor activation (CRE luciferase / Renilla) (fold of no-odor wells); higher = more activation
Conditions: 100 µM

Row | SMILES | odorant receptor activation
1 | CC(C)C(=O)O [isobutyric acid] | 1.17 and 0.871
2 | CC12CCC(CC1)C(C)(C)O2 [cineole] | 0.999
3 | C=CC(C)(O)CCC=C(C)C (centres undefined) [linalool] | 0.84
4 | c1cnccn1 [pyrazine] | 0.997
5 | CC(=O)C(C)=O [diacetyl] | 1.35
6 | CC/C=C\CCO [cis-3-hexen-1-ol] | 0.832
7 | CC1=CCC(C(C)(C)O)CC1 (centres undefined) [terpineol] | 0.983
8 | CCCCCCCCOC(C)=O [octyl acetate] | 0.738
9 | CCCCO [1-butanol] | 1.18
10 | O=C1CCCCCCCCCCCC(=O)OCCO1 [ethylene brassylate] | 1.3
11 | CC1CCC(C(C)C)C(O)C1 (single isomer, unassigned; (-)) [(-)-menthol] | 3.57
12 | COC(=O)c1ccccc1O [methyl salicylate] | 0.704
13 | CC1CCC(C(C)C)C(O)C1 (single isomer, unassigned; (+)) [(+)-menthol] | 1.22
14 | C=CCc1ccc(O)c(OC)c1 [eugenol] | 1.2
15 | C=C(C)C1CC=C(C)C(=O)C1 (centres undefined) [r-carvone] | 0.884
16 | CC(=O)OCC=C(C)CCC=C(C)C [geranyl acetate] | 1.09 and 1.62
17 | CCCCCCOC(=O)CCC [hexyl butyrate] | 1.08 and 1.12
18 | CC(C)CCC(=O)O [4-methylvaleric acid] | 0.963
19 | c1ccc(Oc2ccccc2)cc1 [diphenyl ether] | 1.09
20 | COc1cc(C=O)ccc1O [vanillin] | 0.854
21 | CC(=O)OC(C)(C)C1CC=C(C)CC1 (centres undefined) [terpinyl acetate] | 1.09
22 | C=CCc1ccc(OC)c(OC)c1 [eugenol methyl ether] | 1.26
23 | CCCCCCCOC(C)=O [heptyl acetate] | 1.33 and 1.5
24 | O=C1CCCCCCCCCCCCCCO1 [pentadecalactone] | 0.931
25 | CCCCCCCCCCC=O [undecanal] | 0.792
26 | O=CCc1ccccc1 [phenyl acetaldehyde] | 1.13
27 | CCCCCCCC=O [octyl aldehyde] | 0.831
28 | CC(C)CC(=O)O [isovaleric acid] | 0.73

System: OR2A2 clone 1476
Assay: as above
Conditions: 100 µM

Row | SMILES | odorant receptor activation
29 | CC(C)C(=O)O [isobutyric acid] | 1.19 and 0.877
30 | CC12CCC(CC1)C(C)(C)O2 [cineole] | 1.15
31 | C=CC(C)(O)CCC=C(C)C (centres undefined) [linalool] | 1.08
32 | c1cnccn1 [pyrazine] | 0.761
33 | CC(=O)C(C)=O [diacetyl] | 1.35
34 | CC/C=C\CCO [cis-3-hexen-1-ol] | 0.881
35 | CC1=CCC(C(C)(C)O)CC1 (centres undefined) [terpineol] | 0.891
36 | CCCCCCCCOC(C)=O [octyl acetate] | 1.08
37 | CCCCO [1-butanol] | 1.1
38 | O=C1CCCCCCCCCCCC(=O)OCCO1 [ethylene brassylate] | 1.62
39 | CC1CCC(C(C)C)C(O)C1 (single isomer, unassigned; (-)) [(-)-menthol] | 3.99
40 | COC(=O)c1ccccc1O [methyl salicylate] | 0.99
41 | CC1CCC(C(C)C)C(O)C1 (single isomer, unassigned; (+)) [(+)-menthol] | 1.11
42 | C=CCc1ccc(O)c(OC)c1 [eugenol] | 1.38 and 1.04 and 1.5
43 | C=C(C)C1CC=C(C)C(=O)C1 (centres undefined) [r-carvone] | 1.02
44 | CC(=O)OCC=C(C)CCC=C(C)C [geranyl acetate] | 1.01 and 1.15
45 | CCCCCCOC(=O)CCC [hexyl butyrate] | 0.846 and 0.819
46 | CC(C)CCC(=O)O [4-methylvaleric acid] | 0.955
47 | c1ccc(Oc2ccccc2)cc1 [diphenyl ether] | 1.05
48 | COc1cc(C=O)ccc1O [vanillin] | 1.11
49 | CC(=O)OC(C)(C)C1CC=C(C)CC1 (centres undefined) [terpinyl acetate] | 0.995
50 | C=CCc1ccc(OC)c(OC)c1 [eugenol methyl ether] | 1.74
51 | CCCCCCCOC(C)=O [heptyl acetate] | 0.921 and 1.31
52 | O=C1CCCCCCCCCCCCCCO1 [pentadecalactone] | 0.928
53 | CCCCCCCCCCC=O [undecanal] | 0.911
54 | O=CCc1ccccc1 [phenyl acetaldehyde] | 1.28
55 | CCCCCCCC=O [octyl aldehyde] | 0.999
56 | CC(C)CC(=O)O [isovaleric acid] | 0.815

System: OR2A25 clone 1387
Assay: as above
Conditions: 100 µM

Row | SMILES | odorant receptor activation
57 | CC(C)C(=O)O [isobutyric acid] | 0.758
58 | CC12CCC(CC1)C(C)(C)O2 [cineole] | 0.219
59 | C=CC(C)(O)CCC=C(C)C (centres undefined) [linalool] | 1.07
60 | c1cnccn1 [pyrazine] | 1.11
61 | CC(=O)C(C)=O [diacetyl] | 1.17
62 | CC/C=C\CCO [cis-3-hexen-1-ol] | 0.255
63 | CC1=CCC(C(C)(C)O)CC1 (centres undefined) [terpineol] | 1.29
64 | CCCCCCCCOC(C)=O [octyl acetate] | 1.25
65 | CCCCO [1-butanol] | 1.08
66 | O=C1CCCCCCCCCCCC(=O)OCCO1 [ethylene brassylate] | 1.79
67 | CC1CCC(C(C)C)C(O)C1 (single isomer, unassigned; (-)) [(-)-menthol] | 0.853
68 | COC(=O)c1ccccc1O [methyl salicylate] | 1.18
69 | CC1CCC(C(C)C)C(O)C1 (single isomer, unassigned; (+)) [(+)-menthol] | 1.02
70 | C=CCc1ccc(O)c(OC)c1 [eugenol] | 1.8 and 1.5
71 | C=C(C)C1CC=C(C)C(=O)C1 (centres undefined) [r-carvone] | 1.88
72 | CC(=O)OCC=C(C)CCC=C(C)C [geranyl acetate] | 2.86
73 | CCCCCCOC(=O)CCC [hexyl butyrate] | 0.814
74 | CC(C)CCC(=O)O [4-methylvaleric acid] | 1.22
75 | c1ccc(Oc2ccccc2)cc1 [diphenyl ether] | 0.86
76 | COc1cc(C=O)ccc1O [vanillin] | 1.25
77 | CC(=O)OC(C)(C)C1CC=C(C)CC1 (centres undefined) [terpinyl acetate] | 1.26
78 | C=CCc1ccc(OC)c(OC)c1 [eugenol methyl ether] | 1.16
79 | CCCCCCCOC(C)=O [heptyl acetate] | 0.968
80 | O=C1CCCCCCCCCCCCCCO1 [pentadecalactone] | 1.14
81 | CCCCCCCCCCC=O [undecanal] | 1.24
82 | O=CCc1ccccc1 [phenyl acetaldehyde] | 1.96
83 | CCCCCCCC=O [octyl aldehyde] | 0.929
84 | CC(C)CC(=O)O [isovaleric acid] | 1.14
